Consider 1 molecule from patent publication US20190359666A1.

Test [1] deals with IGFBP3-Fc-VEGF-1 (human). The test is described as follows: competition ELISA on chimera A, competitor of biotinylated VEGF (FIG. 9). (In general: ELISA stands for enzyme-linked immunosorbent assay.)
In test [2] the target is IGFBP3-Fc-VEGF-1 (human). The test is described as follows: competition ELISA: unlabelled competitor against biotinylated VEGF (vegf-bio) binding to Chimera A, OD 450.

These are yes or no findings as the source states them, for the method shown. Some results given as binding are weak or reduced against the parent protein; the word gives no strength.

B1: PIGF (ligand, UniProt P49763-2 21-149, looked up)
chain: AVPPQQWALSAGNGSSEVEVVPFQEVWGRSYCRALERLVDVVSEYPSEVEHMFSPSCVSLLRCTGCCGDENLHCVPVETANVTMQLLKIRSGDRPSYVELTFSQHVRCECRPLREKMKPERCGDAVPRR
With B1, the binding result in the test with IGFBP3-Fc-VEGF-1 (human) [1] and in the test with IGFBP3-Fc-VEGF-1 (human) [2] was “binds” each time.
